Laboratory results as given in the supplement of paper PMC12024529.
Counter-ions that a name gives are not always drawn. Some of the results follow. Baselines shift from plate to plate; read single values as rough.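 HEK293 lines stably express B-domain-deleted factor VIII fused to Gaussia luciferase, wild type or a misfolding-prone missense mutant. Scores equal triplicate-well mean luminescence minus DMSO mean, divided by DMSO standard deviation; scores of 2 or higher are hits. Low scores may indicate reduced secretion or worse cell viability.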

What was measured:
[1] = system: HEK293 WT BDD-FVIII-Gluc; assay: secreted FVIII-Gluc luciferase Z-score vs DMSO control; higher = more FVIII-Gluc secretion; details: 5 µM; 24 h
[2] = system: HEK293 p.N1941S BDD-FVIII-Gluc; assay: as above; details: 5 µM; 24 h

Row | Structure (SMILES) | secreted FVIII-Gluc luciferase Z-score [1] | secreted FVIII-Gluc luciferase Z-score [2]
1 | COc1cc(/C=C/C(=O)CC(=O)/C=C/c2ccc(O)c(OC)c2)ccc1O [Curcumin] | inactive: -2.74 | inactive: -0.641
2 | CC(=O)NC[C@H]1CN(c2ccc(N3CCOCC3)c(F)c2)C(=O)O1 [Linezolid (Zyvox)] | inactive: -4.65 | inactive: 0.0669
3 | CCC(=O)O[C@]1(C(=O)CCl)[C@@H](C)C[C@H]2[C@@H]3CCC4=CC(=O)C=C[C@]4(C)[C@@]3(F)[C@@H](O)C[C@@]21C [Clobetasol propionate] | active: 5.29 | active: 7.8
4 | C[C@H]1C[C@H]2[C@@H]3CCC4=CC(=O)C=C[C@]4(C)[C@@]3(F)[C@@H](O)C[C@]2(C)[C@@]1(O)C(=O)CO [Betamethasone (Celestone)] | active: 15.7 | active: 5.19
5 | Cc1cccc(C)c1OCC(C)N (stereo not drawn) [Mexiletine HCl] | inactive: -1.45 | inactive: 0.726
6 | CCCCOc1cc(C(=O)OCCN(CC)CC)ccc1N [Oxybuprocaine HCl] | inactive: -1.15 | inactive: 0.62
7 | CCOc1cc(CC(=O)N[C@@H](CC(C)C)c2ccccc2N2CCCCC2)ccc1C(=O)O [Repaglinide] | inactive: -2.62 | inactive: -0.363
8 | Cc1cc(C(C)(C)C)c(O)c(C)c1CC1=NCCN1 [Oxymetazoline hydrochloride] | active: 2.01 | inactive: -0.613
9 | COc1c(C)c2c(c(O)c1C/C=C(\C)CCC(=O)OCCN1CCOCC1)C(=O)OC2 [Mycophenolate mofetil (CellCept)] | inactive: -12 | inactive: -3.83
10 | COc1cc([C@@H]2c3cc4c(cc3[C@@H](O[C@@H]3O[C@@H]5CO[C@@H](C)O[C@H]5[C@H](O)[C@H]3O)[C@H]3COC(=O)[C@H]23)OCO4)cc(OC)c1O [Etoposide (VP-16)] | inactive: -4.38 | inactive: -14
11 | Fc1ccc(C(c2ccc(F)cc2)N2CCN(C/C=C/c3ccccc3)CC2)cc1 [Flunarizine 2HCl] | active: 3.14 | inactive: -2.56
12 | CCOc1nc2cccc(C(=O)OC(C)OC(=O)OC3CCCCC3)c2n1Cc1ccc(-c2ccccc2-c2nn[nH]n2)cc1 (stereo not drawn) [Candesartan cilexetil (Atacand)] | active: 2.67 | inactive: -1.63
13 | CCN(CC)CCOc1ccc(C(=C(Cl)c2ccccc2)c2ccccc2)cc1 [Clomifene citrate (Serophene)] | inactive: 1.03 | inactive: -2.9
14 | CC(C)(O/N=C(\C(=O)N[C@@H]1C(=O)N2C(C(=O)[O-])=C(C[n+]3ccccc3)CS[C@H]12)c1csc(N)n1)C(=O)O [Ceftazidime Pentahydrate] | inactive: -0.774 | inactive: 1.25
15 | CN(C)CCC(c1ccc(Cl)cc1)c1ccccn1 (stereo not drawn) [Chlorpheniramine Maleate] | inactive: -2.51 | inactive: -0.631
16 | CN(C)CCOC(c1ccccc1)c1ccccc1 [Diphenhydramine HCl (Benadryl)] | inactive: -3.79 | inactive: -1.54
17 | Cc1cnc(C(=O)NCCc2ccc(S(=O)(=O)NC(=O)NC3CCCCC3)cc2)cn1 [Glipizide (Glucotrol)] | inactive: -0.453 | inactive: -0.684
18 | CCOC(=O)[C@H](CCc1ccccc1)N[C@@H](C)C(=O)N1[C@H](C(=O)O)C[C@@H]2CCC[C@@H]21 [Ramipril (Altace)] | inactive: -0.0531 | inactive: 1.52
19 | O=C1Cc2cc(CCN3CCN(c4nsc5ccccc45)CC3)c(Cl)cc2N1 [Ziprasidone hydrochloride] | inactive: -5.14 | inactive: -1.6

Quoted from the listing:
CCC(=O)O[C@]1(C(=O)CCl)[C@@H](C)C[C@H]2[C@@H]3CCC4=CC(=O)C=C[C@]4(C)[C@@]3(F)[C@@H](O)C[C@@]21C [Clobetasol propionate] – secreted FVIII-Gluc luciferase Z-score [1]: active: 5.29
Cc1cccc(C)c1OCC(C)N (stereo not drawn) [Mexiletine HCl] – secreted FVIII-Gluc luciferase Z-score [1]: inactive: -1.45
